Results are given in words; binding and its absence hold for the method and conditions named. Binding seen in cells or lysates may run through a third protein. These calls come from enrichment with a bait or labelling near it, and not all partners need be listed. Where a sequence is shown, tags or fusion partners need not be part of it.
B1: BOI1 (protein, UniProt P38041 1-980)
chain: MSLEGNTLGKGAKSFPLYIAVNQYSKRMEDELNMKPGDKIKVITDDGEYNDGWYYGRNLRTKEEGLYPAVFTKRIAIEKPENLHKSPTQESGNSGVKYGNLNDSASNIGKVSSHQQENRYTSLKSTMSDIDKALEELRSGSVEQEVSKSPTRVPEVSTPQLQDEQTLIQEKTRNEENTTHDSLFSSTADLNLSSESLKNISKSNISTKSLEPSSESVRQLDLKMAKSWSPEEVTDYFSLVGFDQSTCNKFKEHQVSGKILLELELEHLKELEINSFGIRFQIFKEIRNIKSAIDSSSNKLDADYSTFAFENQAAQLMPAATVNRDEIQQQISSKCNKLSSESSDRKSSSVTTELQRPSSVVVNPNFKLHDPAEQILDMTEVPNLFADKDIFESPGRAPKPPSYPSPVQPPQSPSFNNRYTNNNARFPPQTTYPPKNKNPTVYSNGLIPNSSTSSDNSTGKFKFPAMNGHDSNSRKTTLTSATIPSINTVNTDESLPAISNISSNATSHHPNRNSVVYNNHKRTESGSSFVDLFNRISMLSPVKSSFDEEETKQPSKASRAVFDSARRKSSYGHSRDASLSEMKKHRRNSSILSFFSSKSQSNPTSPTKQTFTIDPAKMTSHSRSQSNSYSHARSQSYSHSRKHSLVTSPLKTSLSPINSKSNIALAHSETPTSSNNKEAVSQPSEGKHKHKHKHKSKHKHKNSSSKDGSSEEKSKKKLFSSTKESFVGSKEFKRSPSELTQKSTKSILPRSNAKKQQTSAFTEGIRSITAKESMQTADCSGWMSKKGTGAMGTWKQRFFTLHGTRLSYFTNTNDEKERGLIDITAHRVLPASDDDRLISLYAASLGKGKYCFKLVPPQPGSKKGLTFTEPRVHYFAVENKSEMKAWLSAIIKATIDIDTSVPVISSYATPTIPLSKAQTLLEEARLQTQLRDAEEEEGRDQFGWDDTQNKRNSNYPIEQDQFETSDYLESSAFEYPGGRL
B2: ALT1 (protein, UniProt P52893 65-592)
chain: SSSWIVAQNHRRSLSGQSSLNDLRHLNRFPHHTLKTSNNEFYPAEQLTLEDVNENVLKAKYAVRGAIPMRAEELKAQLEKDPQSLPFDRIINANIGNPQQLQQKPLTYYRQVLSLLQYPELLNQNEQQLVDSKLFKLDAIKRAKSLMEDIGGSVGAYSSSQGVEGIRKSVAEFITKRDEGEISYPEDIFLTAGASAAVNYLLSIFCRGPETGVLIPIPQYPLYTATLALNNSQALPYYLDENSGWSTNPEEIETVVKEAIQNEIKPTVLVVINPGNPTGAVLSPESIAQIFEVAAKYGTVVIADEVYQENIFPGTKFHSMKKILRHLQREHPGKFDNVQLASLHSTSKGVSGECGQRGGYMELTGFSHEMRQVILKLASISLCPVVTGQALVDLMVRPPVEGEESFESDQAERNSIHEKLITRAMTLYETFNSLEGIECQKPQGAMYLFPKIDLPFKAVQEARHLELTPDEFYCKKLLESTGICTVPGSGFGQEPGTYHLRTTFLAPGLEWIKKWESFHKEFFDQYRD
B3: ERV41 (protein, UniProt Q04651 1-352)
chain: MAGLKTFDAFPKTEEQYKKKSTKGGLTSLLTYLFLLFIAWTEFGEYFGGYIDQQYVVDSQVRDTVQINMDIYVNTKCDWLQINVRDQTMDRKLVLEELQLEEMPFFIPYDTKVNDINEIITPELDEILGEAIPAEFREKLDTRSFFDESDPNKAHLPEFNGCHVFGSIPVNRVSGELQITAKSLGYVASRKAPLEELKFNHVINEFSFGDFYPYIDNPLDNTAQFNQDEPLTTYVYYTSVVPTLFKKLGAEVDTNQYSVNDYRYLYKDVAAKGDKMPGIFFKYNFEPLSIVVSDVRLSFIQFLVRLVAICSFLVYCASWIFTLLDMALITIMGPKWSLRYQPDDKTKGILDR
B4: CPA1 (protein, UniProt P07258 1-411)
chain: MSSAATKATFCIQNGPSFEGISFGANKSVAGETVFTTSLVGYPESMTDPSYRGQILVFTQPLIGNYGVPSGEARDEYNLLKYFESPHIHVVGIVVAEYAYQYSHWTAVESLAQWCQREGVAAITGVDTRELVQYLREQGSSLGRITLADHDPVPYVNPMKTNLVAQVTTKKPFHVSALPGKAKANVALIDCGVKENIIRCLVKRGANVTVFPYDYRIQDVASEFDGIFLSNGPGNPELCQATISNVRELLNNPVYDCIPIFGICLGHQLLALASGASTHKLKYGNRAHNIPAMDLTTGQCHITSQNHGYAVDPETLPKDQWKPYFVNLNDKSNEGMIHLQRPIFSTQFHPEAKGGPLDTAILFDKFFDNIEKYQLQSQAKSSISLKVTYSTDKSRLQSINVTKLAKERVLF
B5: AYR1 (protein, UniProt P40471 1-297)
chain: MSELQSQPKKIAVVTGASGGIGYEVTKELARNGYLVYACARRLEPMAQLAIQFGNDSIKPYKLDISKPEEIVTFSGFLRANLPDGKLDLLYNNAGQSCTFPALDATDAAVEQCFKVNVFGHINMCRELSEFLIKAKGTIVFTGSLAGVVSFPFGSIYSASKAAIHQYARGLHLEMKPFNVRVINAITGGVATDIADKRPLPETSIYNFPEGREAFNSRKTMAKDNKPMPADAYAKQLVKDILSTSDPVDVYRGTFANIMRFVMIFVPYWLLEKGLSKKFKLDKVNNALKSKQKNKDD
B6: BUD5 (protein, UniProt P25300 1-642)
chain: MSPKNKYVYICVEYIYIYFAKIHKQSTLSSDTTKMFVLIDNVLAYLLEQDDLFVTARFAIQGQIVSRRVNKIHISNITDVLLQQFISHTLPYNDNIVPKKILDSMRTAVRQLLEATACVSRECPLVKRSQDIKRARKRLLSDWYRLGADANMDAVLLVVNSAWRFLAVWRPFVNSIQHATQELYQNIAHYLLHGNVNIQRVTALIQLVMGQDDLLFSMDDVLQEVFRIQLYLNKMLPHNSHKWQKPSPFDSANLLLNFRDWTTDNALLQELLLSYPTINKNKHKNHSVPRLIQIWVESYWQDSETTLKDILNFWYSHLAEYYEYQELFADIVQLFINKKRTRQLKIHYIGLTDKEIEENKPPLDYENLFLQYEIDKTNANDELCGATDLSDLLFQWKQGELLEVEAFALNVSPWSLAKTLTLLESSLYLDIETIEFTRHFKHNDTTIDSVFTLSNQLSSYVLETTLQQTHTISYWLQVALSCLYLRNLNSLASIITSLQNHSIERLSLPIDVKSDHLFQRLKVVVHPNNNYNVYRRTIKHIFHSQLPCVPFTSLLIRDITFIRDGNDTFTKDGNNVNMQKFNQITKIVAFAQYLQQKQYEDIHCSNTTARSLLGAMIKVHTLYNDNKDRAYQVSIAKVPRLT
B7: GIS2 (protein, UniProt P53849 1-153)
chain: MSQKACYVCGKIGHLAEDCDSERLCYNCNKPGHVQTDCTMPRTVEFKQCYNCGETGHVRSECTVQRCFNCNQTGHISRECPEPKKTSRFSKVSCYKCGGPNHMAKDCMKEDGISGLKCYTCGQAGHMSRDCQNDRLCYNCNETGHISKDCPKA
B8: COA6 (protein, UniProt Q3E846 1-104)
chain: MGLFSFDGGKKESQPPNTRSQRKLCWESRDAFFQCLDKADILDAMDPKNSKSIKSHCKVENEKFEENCAHSWIKYFKEKRVIDFKREQTIKRIEQEAKQRERNQ
B9: ATG18 (protein, UniProt P43601 1-500)
chain: MSDSSPTINFINFNQTGTCISLGTSKGFKIFNCEPFGKFYSEDSGGYAIVEMLFSTSLLALVGIGDQPALSPRRLRIINTKKHSIICEVTFPTSILSVKMNKSRLVVLLQEQIYIYDINTMRLLHTIETNPNPRGLMAMSPSVANSYLVYPSPPKVINSEIKAHATTNNITLSVGGNTETSFKRDQQDAGHSDISDLDQYSSFTKRDDADPTSSNGGNSSIIKNGDVIVFNLETLQPTMVIEAHKGEIAAMAISFDGTLMATASDKGTIIRVFDIETGDKIYQFRRGTYATRIYSISFSEDSQYLAVTGSSKTVHIFKLGHSMSNNKLDSDDSNMEEAAADDSSLDTTSIDALSDEENPTRLAREPYVDASRKTMGRMIRYSSQKLSRRAARTLGQIFPIKVTSLLESSRHFASLKLPVETNSHVMTISSIGSPIDIDTSEYPELFETGNSASTESYHEPVMKMVPIRVVSSDGYLYNFVMDPERGGDCLILSQYSILMD
B10: ERG26 (protein, UniProt P53199 1-349)
chain: MSKIDSVLIIGGSGFLGLHLIQQFFDINPKPDIHIFDVRDLPEKLSKQFTFNVDDIKFHKGDLTSPDDMENAINESKANVVVHCASPMHGQNPDIYDIVNVKGTRNVIDMCKKCGVNILVYTSSAGVIFNGQDVHNADETWPIPEVPMDAYNETKAIAEDMVLKANDPSSDFYTVALRPAGIFGPGDRQLVPGLRQVAKLGQSKFQIGDNNNLFDWTYAGNVADAHVLAAQKLLDPKTRTAVSGETFFITNDTPTYFWALARTVWKADGHIDKHVIVLKRPVAICAGYLSEWVSKMLGKEPGLTPFRVKIVCAYRYHNIAKAKKLLGYTPRVGIEEGINKTLAWMDEGL
B11: BRE2 (protein, UniProt P43132 1-505)
chain: MKLGIIPYQEGTDIVYKNALQGQQEGKRPNLPQMEATHQIKSSVQGTSYEFVRTEDIPLNRRHFVYRPCSANPFFTILGYGCTEYPFDHSGMSVMDRSEGLSISRDGNDLVSVPDQYGWRTARSDVCIKEGMTYWEVEVIRGGNKKFADGVNNKENADDSVDEVQSGIYEKMHKQVNDTPHLRFGVCRREASLEAPVGFDVYGYGIRDISLESIHEGKLNCVLENGSPLKEGDKIGFLLSLPSIHTQIKQAKEFTKRRIFALNSHMDTMNEPWREDAENGPSRKKLKQETTNKEFQRALLEDIEYNDVVRDQIAIRYKNQLFFEATDYVKTTKPEYYSSDKRERQDYYQLEDSYLAIFQNGKYLGKAFENLKPLLPPFSELQYNEKFYLGYWQHGEARDESNDKNTTSAKKKKQQQKKKKGLILRNKYVNNNKLGYYPTISCFNGGTARIISEEDKLEYLDQIRSAYCVDGNSKVNTLDTLYKEQIAEDIVWDIIDELEQIALQQ

Molecular target: T1, His6-Gis1 (yeast (S. cerevisiae)) (UniProt Q03833)
T1 sequence: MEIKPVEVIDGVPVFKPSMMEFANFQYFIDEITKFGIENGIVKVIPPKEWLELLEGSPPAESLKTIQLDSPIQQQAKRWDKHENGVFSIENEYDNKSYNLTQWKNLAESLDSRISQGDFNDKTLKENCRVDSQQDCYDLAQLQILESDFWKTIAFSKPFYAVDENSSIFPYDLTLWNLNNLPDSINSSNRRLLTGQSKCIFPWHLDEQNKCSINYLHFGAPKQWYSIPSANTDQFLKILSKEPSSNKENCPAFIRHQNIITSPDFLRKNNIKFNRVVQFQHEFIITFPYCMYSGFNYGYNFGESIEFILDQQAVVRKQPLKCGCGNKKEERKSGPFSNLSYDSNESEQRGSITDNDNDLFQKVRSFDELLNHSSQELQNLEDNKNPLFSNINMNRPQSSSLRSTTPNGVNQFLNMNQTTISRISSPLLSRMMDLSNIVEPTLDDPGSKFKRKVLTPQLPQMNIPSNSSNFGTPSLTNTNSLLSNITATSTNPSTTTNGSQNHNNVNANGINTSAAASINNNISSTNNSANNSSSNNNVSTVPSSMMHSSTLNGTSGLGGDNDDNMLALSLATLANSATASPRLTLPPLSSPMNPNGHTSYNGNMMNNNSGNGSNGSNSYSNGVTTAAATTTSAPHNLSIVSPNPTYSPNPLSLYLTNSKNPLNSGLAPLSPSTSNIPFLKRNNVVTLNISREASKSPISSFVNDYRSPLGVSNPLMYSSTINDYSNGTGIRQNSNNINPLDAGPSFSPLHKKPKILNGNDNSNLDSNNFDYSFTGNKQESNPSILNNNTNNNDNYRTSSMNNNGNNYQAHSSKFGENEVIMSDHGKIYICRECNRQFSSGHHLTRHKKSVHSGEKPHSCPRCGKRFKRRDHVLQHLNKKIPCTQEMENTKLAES
Assay: affinity purification with mass spectrometry; His6-Gis1 pre-bound to a Ni Sepharose 6 Fast Flow column; crude yeast extract (Δgis1 cells grown in air or under hypoxia, Δgis1Δhem1 cells at intermediate or high ALA) loaded, 4 °C, 2 h; eluted complexes separated by SDS-PAGE, bands excised, MS; only the target purified

binding, binds:
B1
B2
B3
B4
B5
B6
B7
B8
B9
B10
B11
